Consider one molecule from paper doi:10.1101/2025.02.01.636027.

This test has as its target T1, TARANI/UBIQUITIN SPECIFIC PROTEASE-14 with a C-terminal Myc tag (RPS5a::TNI-Myc) (Arabidopsis thaliana) (UniProt Q8L6Y1).
T1 sequence: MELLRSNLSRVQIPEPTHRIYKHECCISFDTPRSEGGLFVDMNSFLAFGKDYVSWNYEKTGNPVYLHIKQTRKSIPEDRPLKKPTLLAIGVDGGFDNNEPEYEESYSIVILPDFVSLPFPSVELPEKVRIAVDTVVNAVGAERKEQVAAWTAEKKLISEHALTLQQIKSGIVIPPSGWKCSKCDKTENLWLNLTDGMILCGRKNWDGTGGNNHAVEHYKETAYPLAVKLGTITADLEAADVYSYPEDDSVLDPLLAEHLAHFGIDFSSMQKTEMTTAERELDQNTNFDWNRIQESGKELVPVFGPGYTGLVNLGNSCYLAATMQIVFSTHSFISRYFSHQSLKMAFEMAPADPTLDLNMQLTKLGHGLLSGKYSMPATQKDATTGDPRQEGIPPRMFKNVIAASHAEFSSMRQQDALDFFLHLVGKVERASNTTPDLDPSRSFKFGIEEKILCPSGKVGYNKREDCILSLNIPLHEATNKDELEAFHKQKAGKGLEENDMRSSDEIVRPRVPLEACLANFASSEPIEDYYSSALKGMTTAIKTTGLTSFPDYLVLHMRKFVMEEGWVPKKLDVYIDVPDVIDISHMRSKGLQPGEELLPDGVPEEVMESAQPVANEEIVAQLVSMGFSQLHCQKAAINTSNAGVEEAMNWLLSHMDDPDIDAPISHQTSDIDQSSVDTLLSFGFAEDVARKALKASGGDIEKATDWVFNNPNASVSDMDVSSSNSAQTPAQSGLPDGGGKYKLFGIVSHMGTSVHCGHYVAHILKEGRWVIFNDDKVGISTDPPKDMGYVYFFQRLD
Put plainly: affinity purification with mass spectrometry.

No constants are given. Whether binding was seen depends on the method and setting. Binding seen in cells or lysates may run through a third protein. A yes stands for co-enrichment or nearness to the bait. Other partners may have been found. Where a sequence is shown, tags or fusion partners need not be part of it.

B1: HASPIN KINASE (enzyme, UniProt O80528 1-599)
chain: MGQRVDLWSEVIKSEEEDGDIPKIEAVFQRRKKPDKSSEAVNFGWLVKGARTSSVNGPKRDSWARSLSTRGRESIAVRAYVNNQPQKKAAGRKKPPIPKGKVVKAPDFQKEKEYFRDIDAFELLEESPSPNKSSTWTMGEQVVPEMPHLSTRLEKWLISKKLNHTCGPSSTLSKILENSAIHQESVCDNDAFDSLSLKTPDKSSAGNTSVFRLIPSCDENLAAEDVPVRKIKMESIDLEDELKRLSLTSDLIPTHQDFDQPILDLLSACGQMRPSNFIEAFSKFCEPESIVKIGEGTYGEAFRAGSSVCKIVPIDGDFRVNGEVQKRADELLEEVILSWTLNQLRECETTAQNLCPTYIKTQDIKLCQGPYDPILIKAWEEWDAKHGSENDHPDFPEKQCYVMFVLEHGGKDLESFVLLNFDEARSLLVQATAGLAVAEAAFEFEHRDLHWGNILLSRNNSDTLPFILEGKQVCIKTFGVQISIIDFTLSRINTGEKILFLDLTSDPYLFKGPKGDKQSETYRKMKAVTEDYWEGSFARTNVLWLIYLVDILLTKKSFERSSKHERELRSLKKRMEKYESAKEAVSDPFFSDMLMDQIS
Take B1: the binding result is “binds”.
